# Measurements taken from the supplement of paper PMC12819154, “High-throughput peptide-centric local stability assay extends protein–ligand identification to membrane proteins, tissues and bacteria” (Nature Structural & Molecular Biology, 2025).
# Amino acid sequences for entries named in this document (tags omitted). A change or cut given only in a name is not applied to a line headed by its entry.
# UniProt O75494: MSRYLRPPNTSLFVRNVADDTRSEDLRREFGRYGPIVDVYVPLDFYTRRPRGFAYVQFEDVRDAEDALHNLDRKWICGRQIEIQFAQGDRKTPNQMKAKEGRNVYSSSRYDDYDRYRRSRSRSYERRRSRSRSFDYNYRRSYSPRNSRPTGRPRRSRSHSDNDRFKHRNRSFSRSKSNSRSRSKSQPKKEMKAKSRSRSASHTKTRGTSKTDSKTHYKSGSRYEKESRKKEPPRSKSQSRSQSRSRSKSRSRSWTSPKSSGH
# UniProt O95067, whole entry: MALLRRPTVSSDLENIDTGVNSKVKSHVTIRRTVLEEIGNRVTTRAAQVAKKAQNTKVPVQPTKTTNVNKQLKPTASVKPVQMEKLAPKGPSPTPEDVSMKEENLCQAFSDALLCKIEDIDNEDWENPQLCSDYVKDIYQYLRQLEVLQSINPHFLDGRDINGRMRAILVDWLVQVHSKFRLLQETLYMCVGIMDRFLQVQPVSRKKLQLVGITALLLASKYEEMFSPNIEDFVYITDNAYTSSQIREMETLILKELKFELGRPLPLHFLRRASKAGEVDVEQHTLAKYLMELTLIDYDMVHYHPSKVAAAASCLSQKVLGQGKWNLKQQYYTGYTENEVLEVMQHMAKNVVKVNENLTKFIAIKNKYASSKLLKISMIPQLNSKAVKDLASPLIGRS
# UniProt O95232: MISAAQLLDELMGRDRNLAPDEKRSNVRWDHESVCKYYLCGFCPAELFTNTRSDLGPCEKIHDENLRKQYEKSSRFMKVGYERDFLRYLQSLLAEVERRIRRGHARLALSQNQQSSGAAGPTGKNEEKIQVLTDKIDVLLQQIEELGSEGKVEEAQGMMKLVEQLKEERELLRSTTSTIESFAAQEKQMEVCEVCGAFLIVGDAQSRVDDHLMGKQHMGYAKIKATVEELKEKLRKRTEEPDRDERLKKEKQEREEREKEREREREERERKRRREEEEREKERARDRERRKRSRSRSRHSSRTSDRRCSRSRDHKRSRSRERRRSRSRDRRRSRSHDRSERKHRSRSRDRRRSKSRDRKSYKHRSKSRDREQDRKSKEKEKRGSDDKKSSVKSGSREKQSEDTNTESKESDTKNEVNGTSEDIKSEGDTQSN
# UniProt O75717: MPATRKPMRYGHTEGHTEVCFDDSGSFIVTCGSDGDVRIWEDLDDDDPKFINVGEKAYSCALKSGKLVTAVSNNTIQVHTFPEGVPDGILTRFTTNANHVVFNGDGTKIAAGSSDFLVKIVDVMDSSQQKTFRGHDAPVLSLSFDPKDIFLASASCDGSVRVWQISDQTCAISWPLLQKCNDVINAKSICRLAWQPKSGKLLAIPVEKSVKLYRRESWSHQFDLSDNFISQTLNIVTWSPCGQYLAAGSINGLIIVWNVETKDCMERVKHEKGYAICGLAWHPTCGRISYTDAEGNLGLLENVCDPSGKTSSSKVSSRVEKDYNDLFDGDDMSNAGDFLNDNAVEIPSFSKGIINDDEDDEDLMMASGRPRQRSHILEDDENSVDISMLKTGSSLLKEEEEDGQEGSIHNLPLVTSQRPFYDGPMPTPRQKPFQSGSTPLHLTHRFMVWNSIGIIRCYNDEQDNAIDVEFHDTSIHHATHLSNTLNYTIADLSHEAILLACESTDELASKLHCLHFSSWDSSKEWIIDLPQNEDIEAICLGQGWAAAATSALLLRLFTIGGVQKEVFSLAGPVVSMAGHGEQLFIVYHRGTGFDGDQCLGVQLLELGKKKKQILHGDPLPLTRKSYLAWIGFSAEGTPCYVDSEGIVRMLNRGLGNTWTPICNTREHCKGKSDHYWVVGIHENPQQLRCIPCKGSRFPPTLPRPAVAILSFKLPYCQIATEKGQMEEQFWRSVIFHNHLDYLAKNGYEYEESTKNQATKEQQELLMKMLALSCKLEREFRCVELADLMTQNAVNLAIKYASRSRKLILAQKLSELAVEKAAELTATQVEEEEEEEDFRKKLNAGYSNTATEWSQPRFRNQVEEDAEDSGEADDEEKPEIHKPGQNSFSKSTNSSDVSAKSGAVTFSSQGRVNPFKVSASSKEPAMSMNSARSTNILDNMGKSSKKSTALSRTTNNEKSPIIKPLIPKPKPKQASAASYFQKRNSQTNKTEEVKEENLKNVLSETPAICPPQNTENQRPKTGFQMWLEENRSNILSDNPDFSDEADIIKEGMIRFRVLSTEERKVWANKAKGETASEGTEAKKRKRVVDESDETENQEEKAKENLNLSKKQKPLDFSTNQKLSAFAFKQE
# UniProt O95299, whole entry: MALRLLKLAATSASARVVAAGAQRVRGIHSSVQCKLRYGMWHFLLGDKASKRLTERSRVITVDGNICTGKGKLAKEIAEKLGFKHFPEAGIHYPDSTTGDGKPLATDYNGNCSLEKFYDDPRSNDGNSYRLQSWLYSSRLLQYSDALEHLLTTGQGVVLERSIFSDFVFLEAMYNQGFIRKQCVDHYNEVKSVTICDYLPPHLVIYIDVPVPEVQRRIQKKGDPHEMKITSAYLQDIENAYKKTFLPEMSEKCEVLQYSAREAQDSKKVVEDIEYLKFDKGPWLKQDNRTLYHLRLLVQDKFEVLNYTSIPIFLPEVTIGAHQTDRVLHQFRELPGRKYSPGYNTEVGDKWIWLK
# UniProt O94892: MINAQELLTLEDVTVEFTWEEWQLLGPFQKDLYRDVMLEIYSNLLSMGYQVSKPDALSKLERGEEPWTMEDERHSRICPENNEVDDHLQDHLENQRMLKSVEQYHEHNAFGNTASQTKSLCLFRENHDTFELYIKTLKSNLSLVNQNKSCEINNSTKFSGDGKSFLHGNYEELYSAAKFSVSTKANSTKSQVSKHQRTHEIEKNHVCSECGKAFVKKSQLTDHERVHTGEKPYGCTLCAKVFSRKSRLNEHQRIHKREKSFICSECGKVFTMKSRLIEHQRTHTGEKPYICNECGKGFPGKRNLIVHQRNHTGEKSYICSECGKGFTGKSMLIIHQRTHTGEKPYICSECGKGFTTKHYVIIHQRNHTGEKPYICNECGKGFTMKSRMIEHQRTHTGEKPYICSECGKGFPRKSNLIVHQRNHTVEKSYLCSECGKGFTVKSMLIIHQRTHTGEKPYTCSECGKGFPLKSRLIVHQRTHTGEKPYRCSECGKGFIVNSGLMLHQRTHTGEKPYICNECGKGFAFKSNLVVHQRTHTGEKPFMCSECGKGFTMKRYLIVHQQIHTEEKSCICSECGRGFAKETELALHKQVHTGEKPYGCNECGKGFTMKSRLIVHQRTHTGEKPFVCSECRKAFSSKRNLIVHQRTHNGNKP
# UniProt O75496: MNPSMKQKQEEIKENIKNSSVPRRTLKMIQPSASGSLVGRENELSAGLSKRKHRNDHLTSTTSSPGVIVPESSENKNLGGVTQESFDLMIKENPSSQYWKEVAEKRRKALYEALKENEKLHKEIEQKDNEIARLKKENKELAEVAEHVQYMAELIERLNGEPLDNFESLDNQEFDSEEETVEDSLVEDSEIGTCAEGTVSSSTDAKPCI
# UniProt O94830: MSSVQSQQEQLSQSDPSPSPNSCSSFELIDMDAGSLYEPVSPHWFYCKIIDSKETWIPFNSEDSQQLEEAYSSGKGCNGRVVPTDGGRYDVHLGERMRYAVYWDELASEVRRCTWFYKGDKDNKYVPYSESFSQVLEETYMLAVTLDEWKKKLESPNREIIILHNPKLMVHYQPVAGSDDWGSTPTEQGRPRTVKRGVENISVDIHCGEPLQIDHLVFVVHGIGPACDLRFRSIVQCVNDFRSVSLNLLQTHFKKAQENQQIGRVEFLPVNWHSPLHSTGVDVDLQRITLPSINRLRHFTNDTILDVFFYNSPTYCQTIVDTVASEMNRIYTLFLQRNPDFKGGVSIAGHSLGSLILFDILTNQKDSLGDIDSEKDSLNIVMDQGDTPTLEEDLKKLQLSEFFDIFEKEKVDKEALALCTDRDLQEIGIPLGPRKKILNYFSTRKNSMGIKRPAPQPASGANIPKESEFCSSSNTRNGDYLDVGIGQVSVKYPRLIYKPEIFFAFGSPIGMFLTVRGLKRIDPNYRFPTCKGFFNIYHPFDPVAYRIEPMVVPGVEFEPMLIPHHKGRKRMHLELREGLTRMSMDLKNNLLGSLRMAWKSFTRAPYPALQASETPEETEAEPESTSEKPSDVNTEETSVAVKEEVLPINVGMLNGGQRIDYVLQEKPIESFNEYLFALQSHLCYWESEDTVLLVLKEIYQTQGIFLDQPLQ
# UniProt O95466, whole entry: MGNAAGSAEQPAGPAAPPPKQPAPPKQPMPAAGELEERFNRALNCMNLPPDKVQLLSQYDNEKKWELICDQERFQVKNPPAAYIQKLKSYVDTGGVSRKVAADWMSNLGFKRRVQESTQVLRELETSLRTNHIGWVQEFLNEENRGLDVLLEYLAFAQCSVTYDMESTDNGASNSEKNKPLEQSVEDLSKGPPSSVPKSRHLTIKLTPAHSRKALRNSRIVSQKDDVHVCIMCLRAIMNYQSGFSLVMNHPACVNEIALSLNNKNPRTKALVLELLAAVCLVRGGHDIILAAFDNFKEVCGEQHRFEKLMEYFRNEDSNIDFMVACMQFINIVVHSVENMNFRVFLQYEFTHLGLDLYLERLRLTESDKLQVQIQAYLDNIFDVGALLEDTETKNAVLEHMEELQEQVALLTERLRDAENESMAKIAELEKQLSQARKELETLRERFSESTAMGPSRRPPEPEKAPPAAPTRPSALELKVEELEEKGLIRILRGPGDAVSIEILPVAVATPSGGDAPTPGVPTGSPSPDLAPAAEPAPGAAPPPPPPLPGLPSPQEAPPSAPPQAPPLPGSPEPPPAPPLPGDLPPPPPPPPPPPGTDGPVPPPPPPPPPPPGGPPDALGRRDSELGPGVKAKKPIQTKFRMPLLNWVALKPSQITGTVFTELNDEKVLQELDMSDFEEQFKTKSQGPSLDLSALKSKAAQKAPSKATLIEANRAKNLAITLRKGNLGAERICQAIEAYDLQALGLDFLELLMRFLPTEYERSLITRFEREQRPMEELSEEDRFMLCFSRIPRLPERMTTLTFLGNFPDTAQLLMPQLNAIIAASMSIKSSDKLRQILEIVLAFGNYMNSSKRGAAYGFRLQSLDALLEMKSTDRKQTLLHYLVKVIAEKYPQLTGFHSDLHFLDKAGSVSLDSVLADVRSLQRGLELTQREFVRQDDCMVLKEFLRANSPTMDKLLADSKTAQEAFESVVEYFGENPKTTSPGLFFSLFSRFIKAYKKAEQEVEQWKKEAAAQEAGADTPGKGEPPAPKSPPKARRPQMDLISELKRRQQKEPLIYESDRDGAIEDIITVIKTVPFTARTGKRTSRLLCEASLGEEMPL
# This is one part of the list. Most values lie at the level of the controls, where differences are scatter.
# Compound: Cc1nc(Nc2ncc(C(=O)Nc3c(C)cccc3Cl)s2)cc(N2CCN(CCO)CC2)n1 [dasatinib]
# Assay: log2 fold change of tryptic peptide abundance, ligand vs vehicle (limited proteolysis) (log2 ratio); higher = more trypsin-susceptible (destabilized)
# Conditions: ligand concentration: 5 uM; sample: K562 cleared lysate
row,Target,log2 fold change
1,"UniProt O75494 (peptide sequence: SFDYNYR, peptide start residue: 133)",-0.0446
2,"CCNB2 (peptide sequence: EMETLILK, peptide start residue: 248) (UniProt O95067)",-0.992
3,"UniProt O95232 (peptide sequence: SDLGPCEKIHDENLR, peptide start residue: 53)",-0.0977
4,"WDHD1 (peptide sequence: NQATKEQQELLMK, peptide start residue: 755) (UniProt O75717)",-0.276
5,"NDUFA10 (peptide sequence: CEVLQYSAR, peptide start residue: 253) (UniProt O95299)",-0.00128
6,"UniProt O94892 (peptide sequence: SFLHGNYEELYSAAK, peptide start residue: 164)",0.199
7,"GMNN (peptide sequence: MIQPSASGSLVGR, peptide start residue: 28) (UniProt O75496)",0.131
8,"DDHD2 (peptide sequence: IDPNYRFPTCK, peptide start residue: 521) (UniProt O94830)",0.247
9,"FMNL1 (peptide sequence: ATLIEANR, peptide start residue: 707) (UniProt O95466)",-0.334
